{"source": "PubChem BioAssay AID1259308 (NCATS, 2017)", "assay": "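Candidate targets for better recombinant protein yield in mammalian cells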 (primary screen)", "system": "human HEK293 embryonic kidney cells stably expressing firefly luciferase (HEK-CMV-Luc2-Hygro)", "reagents": "single siRNA against human genes, 0.8 pmol siRNA per well", "time to read-out": "72 h", "measurement": "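Reporter luminescence and viable-cell signal on separate replicate plates, given as percent of non-targeting control and median/MAD z-scores, plus per-cell luciferase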", "scale": "total luciferase, z-score: higher = more reporter protein produced", "active means": "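An siRNA counts as active if its total luciferase robust z-score exceeds 3; genes with two or more such siRNAs out of three were retested with fresh siRNAs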", "meaning of the calls": "active = raised luciferase; inactive = no rise", "note": "In all, the deposit lists about 59,000 reagents; this is a part drawn at random. In the full data, about 1,510 (2.6%) were called active. 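Calls use total luciferase alone and ignore viability, so some active siRNAs may act by altering cell number.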 Reagents against one gene are numbered here. Not all columns of the deposit are shown."}
{"gene": "PRSS44P", "reagent no.": 1, "total luciferase, z-score": -0.503, "call": "inactive"}
{"gene": "PRSS44P", "reagent no.": 2, "total luciferase, z-score": 0.406, "call": "inactive"}
{"gene": "PRSS44P", "reagent no.": 3, "total luciferase, z-score": -0.718, "call": "inactive"}
{"gene": "PRSS44P", "reagent no.": 4, "total luciferase, z-score": 1.19, "call": "inactive"}
{"gene": "PRSS44P", "reagent no.": 5, "total luciferase, z-score": 0.438, "call": "inactive"}
{"gene": "PRSS44P", "reagent no.": 6, "total luciferase, z-score": -0.366, "call": "inactive"}
{"gene": "RFT1", "reagent no.": 1, "total luciferase, z-score": 0.551, "call": "inactive"}
{"gene": "RFT1", "reagent no.": 2, "total luciferase, z-score": 0.698, "call": "inactive"}
{"gene": "RFT1", "reagent no.": 3, "total luciferase, z-score": -0.171, "call": "inactive"}
{"gene": "AEBP2", "reagent no.": 1, "total luciferase, z-score": 0.692, "call": "inactive"}
{"gene": "AEBP2", "reagent no.": 2, "total luciferase, z-score": -1.24, "call": "inactive"}
{"gene": "AEBP2", "reagent no.": 3, "total luciferase, z-score": -0.379, "call": "inactive"}
{"gene": "ASB8", "reagent no.": 1, "total luciferase, z-score": -0.589, "call": "inactive"}
{"gene": "ASB8", "reagent no.": 2, "total luciferase, z-score": 1.62, "call": "inactive"}
{"gene": "ASB8", "reagent no.": 3, "total luciferase, z-score": -0.79, "call": "inactive"}
{"gene": "DUS3L", "reagent no.": 1, "total luciferase, z-score": 0.633, "call": "inactive"}
{"gene": "DUS3L", "reagent no.": 2, "total luciferase, z-score": -0.532, "call": "inactive"}
{"gene": "DUS3L", "reagent no.": 3, "total luciferase, z-score": 0.0519, "call": "inactive"}
{"gene": "DIPK1C", "reagent no.": 1, "total luciferase, z-score": 0.529, "call": "inactive"}
{"gene": "DIPK1C", "reagent no.": 2, "total luciferase, z-score": -0.741, "call": "inactive"}
{"gene": "DIPK1C", "reagent no.": 3, "total luciferase, z-score": -0.899, "call": "inactive"}
{"gene": "TSPAN9", "reagent no.": 1, "total luciferase, z-score": -0.18, "call": "inactive"}
{"gene": "TSPAN9", "reagent no.": 2, "total luciferase, z-score": 0.074, "call": "inactive"}
{"gene": "TSPAN9", "reagent no.": 3, "total luciferase, z-score": -0.574, "call": "inactive"}
{"gene": "FOXC1", "reagent no.": 1, "total luciferase, z-score": -0.156, "call": "inactive"}
{"gene": "FOXC1", "reagent no.": 2, "total luciferase, z-score": 1.67, "call": "inactive"}
{"gene": "FOXC1", "reagent no.": 3, "total luciferase, z-score": -0.0417, "call": "inactive"}
{"gene": "LOC729900", "reagent no.": 1, "total luciferase, z-score": -0.65, "call": "inactive"}
{"gene": "LOC729900", "reagent no.": 2, "total luciferase, z-score": 1.73, "call": "inactive"}
{"gene": "LOC729900", "reagent no.": 3, "total luciferase, z-score": 0.707, "call": "inactive"}
{"gene": "RPL7P9", "reagent no.": 1, "total luciferase, z-score": -2.78, "call": "inactive"}
{"gene": "RPL7P9", "reagent no.": 2, "total luciferase, z-score": -3.17, "call": "inactive"}
{"gene": "RPL7P9", "reagent no.": 3, "total luciferase, z-score": -3.05, "call": "inactive"}

No new results follow: entries from further up.
{"gene": "PRSS44P", "reagent no.": 3, "total luciferase, z-score": -0.718, "call": "inactive"}
{"gene": "PRSS44P", "reagent no.": 4, "total luciferase, z-score": 1.19, "call": "inactive"}
{"gene": "PRSS44P", "reagent no.": 5, "total luciferase, z-score": 0.438, "call": "inactive"}
{"gene": "PRSS44P", "reagent no.": 6, "total luciferase, z-score": -0.366, "call": "inactive"}
{"gene": "RFT1", "reagent no.": 1, "total luciferase, z-score": 0.551, "call": "inactive"}
